# According to patent US20250388687A1:
# Sequences of proteins named here, by UniProt entry; tags and fusion partners are left off. Residues count along the entry.
# UniProt P32927, residues 17-443: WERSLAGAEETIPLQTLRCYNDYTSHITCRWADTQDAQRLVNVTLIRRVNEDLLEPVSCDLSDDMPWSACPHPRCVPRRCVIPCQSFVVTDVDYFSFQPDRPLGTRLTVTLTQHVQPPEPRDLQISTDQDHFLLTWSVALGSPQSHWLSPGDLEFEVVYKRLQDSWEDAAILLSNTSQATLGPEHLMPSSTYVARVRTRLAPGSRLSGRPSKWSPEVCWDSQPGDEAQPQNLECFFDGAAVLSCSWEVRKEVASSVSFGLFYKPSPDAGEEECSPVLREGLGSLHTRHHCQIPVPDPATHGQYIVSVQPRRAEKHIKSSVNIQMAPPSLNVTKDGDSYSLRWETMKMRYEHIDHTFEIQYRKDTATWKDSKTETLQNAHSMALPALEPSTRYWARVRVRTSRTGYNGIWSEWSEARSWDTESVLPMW
# Substitutions are numbered along the chain they refer to. Results are given in words; binding and its absence hold for the method and conditions named. Some entries that bind do so weakly or less than the wild type.
# B1: clonotype 366 (EPOR/CD131 binders, Table 8) (antibody, V domains shown)
# VH: QMQLQESGPGLVRPSETLSLTCTVSGGSISTRSYYWGWIRQPPGKGLEWIGSVFYSGSTYYNPSLKSRVAISVDTSKNQFSLKVNSVTAADTAVFYCVRQGYDSWTGYSFFYFDYWGQGTLVTVSS
# VL: QSALTQPPSASGSPGQSVTISCTGTSSDVGGYNYVSWYQQHPGKAPKLMIYEVSKRPSGVPDRFSGSKSGNTASLTVSGLQAEDEADYYCSSYAGSNNLVFGGGTKLTVL
# B2: clonotype 368 (EPOR/CD131 binders, Table 8) (antibody, V domains shown)
# VH: QLQLQESGPGLVKPSETLALTCTVSGGSISSIIYYWGWIRQPPGKGLEWIGNVYYSGSIYYNPSLKSRVTISVDTSKNQFSLKLSSVTAADTAVYYCARQNWGSDAFDIWGQGTMVTVSS
# VL: SYELTQPLSLSVALGQTARITCGENNIGSRNVHWYQQKPGQAPVLVIYRDSDRPSGIPERFSGSNSGNTATLTISRAQAGDEADYFCQVWDSSTAVFGGGTKLTVL
# B3: clonotype 369 (EPOR/CD131 binders, Table 8) (antibody, V domains shown)
# VH: QVQLQQWGAGLLKPSETLSLTCAVYGGSFSGYYWSWIRQPPGKGLEWIGEINHSGNTNYNPSLKSRVTISVDTSKNQFSLKLSSVTAADTAVYYCARGELGIGYWYFDLWGRGTLVTVSS
# VL: SSELTQDPAVSVALGQTVRITCQGDSLRSYYASWYQQKPGQAPVLVIYGKNNRPSGIPDRFSGSSSGNTASLTITGAQAEDEADYYCNSRDSSGNHVVFGGGTKLTVL
# B4: clonotype 380 (EPOR/CD131 binders, Table 8) (antibody, V domains shown)
# VH: QVQLVQSGAEVKKPGASVKVSCKASGYTFITYGISWVRQAPGQGLEWMGWISSYNGNTNYAQKLQGRVTMTRDTSTSTAYMELRSLRSDDTAVYYCARAPGGDCSSTSCYKWNYDPYYFDYWGQGTLVTVSS
# VL: QSALTQPASVSGSPGQSITISCTGTSSDVGGYNHVSWYQQNPGKAPKLMIYDVSKRPSGVSNRFSGSKSGNTASLTISGLQAEDEADYYCCSYAGSSTLVFGGGTKLTVL
# B5: anti-CD131 antibody clonotype 8 (Table 6) (antibody, V domains shown)
# VH: QLQLQESGPGLVKPSETLSLTCTVSGGSISSSSYYWGWIRQPPGKGLEWIGSIYYSGSTYYNPSLKSRVTISVDTSKNQFSLKLSSVTAADTAVYYCASLTGDRFDYWGQGTLVTVSS
# VL: B4 VL with H34Y, N41H, D52E, K55N, C91S, A94T, G95S, L99V
# B6: anti-CD131 antibody clonotype 14 (Table 6) (antibody, V domains shown)
# VH: EVQLVESGGGVVRPGGSLRLSCAASGFTFDDYGMSWVRQAPGKGLEWVSGINWNGGSTGYADSVKGRFTISRDNAKNSLYLQMNSLRAEDTALYYCARERLTIFGVVNYYMDVWGKGTTVTVSS
# VL: QSVLTQPPSVSGAPGQRVTISCTGSSSNIGAGYDVHWYQQLPGTAPKLLIYGNSNRPSGVPDRFSGSKSGTSASLAITGLQAEDEADYYCQSYDSSLSGWVFGGGTKLTVL
# B7: anti-CD131 antibody clonotype 15 (Table 6) (antibody, V domains shown)
# VH: EVQLVESGGGLVQPGGSLRLSCAASGFTFSSYSMNWVRQAPGKGLEWVSYISSSSSTIYYADSVKGRFTISRDNAKNSLYLQMNSLRDEDTAVYYCARDGWDYWGQGTLVTVSS
# VL: SYELTQPSSVSVSPGQTARITCSGDVLAKKYARWFQQKPGQAPVLVIYKDSERPSGIPERFSGSSSGTTVTLTISGAQVEDEADYYCYSAADNNRVFGGGTKLTVL
# B8: anti-CD131 antibody clonotype 16 (Table 6) (antibody, V domains shown)
# VH: EVQLVESGGGLVQPGGSLKLSCAASGFTFSSSDMHWVRQTTGKGLEWVSAIYTTGDTYYPGSVKGRFTISRENAKNSLYLQMNSLRAGDTAVYYCARGYSGSYYGDFDYWGQGTLVTVSS
# VL: SYELTQPPSVSVSPGQTARITCSGDALPKKYAYWYQQKSGQAPVLVIYEDSKRPSGIPERFSGSSSGTMATLTISGAQVEDEADYYCYSTDSSGNRVFGGGTKLTVL
# B9: anti-CD131 antibody clonotype 25 (Table 6) (antibody, V domains shown)
# VH: QVQLVQSGAEVKKPGASVKVSCKASGYTFTSYGISWVRQAPGQGLEWMGWISAYNGNTNYAQKLQGRVTMTTDTSTSTAYMELRSLRSDDTAVYYCARENSGSYYWFDPWGQGTLVTVSS
# VL: B1 VL with L99V
# B10: anti-CD131 antibody clonotype 36 (Table 6) (antibody, V domains shown)
# VH: QVQLQQWGAGLLKPSETLSLTCAVYGGSFSGYYWSWIRQPPGKGLEWIGEINHSGSTNYNPSLKSRVTISVDTSKNQFSLKLSSVTAADTAVYYCAREGLLVGATLDAFDIWGQGTMVTVSS
# VL: B3 VL with V97L, G101T, L105V
# B11: anti-CD131 antibody clonotype 45 (Table 6) (antibody, V domains shown)
# VH: QVQLQQWGAGLLKPSETLSLTCAVYGGSFSGYYWSWIRQPPGKGLEWIGEINHSGSTNYNPSLKSRVTISVDTSKNQFSLKLSSVTAADTAVYYCARTSLAAADFDYWGQGTLVTVSS
# VL: B1 VL with L99Y, G103T, L107V
# B12: anti-CD131 antibody clonotype 52 (Table 6) (antibody, V domains shown)
# VH: EVQLVESGGGLVKPGGSLRLSCIASGFTFSTYSMNWVRQAPGKGLEWVSSISGSSSYIYYSDSVKGRFTISRDNAKNSLYLQLNSLRAEDTAVYYCASHWGHFDYWGRGTLVTVSS
# VL: B2 VL with L10V, E24G, R30K, D52N, F86Y, A95V
# B13: anti-CD131 antibody clonotype 115 (Table 6) (antibody, V domains shown)
# VH: EVQLVESGGGLVQPGGSLRLSCAASGFTFSSYDMHWVRQATGKGLEWVSAIGTAGDTYYPGSVKGRFTISRENAKNSLYLQMNSLRAGDTAVYYCARDRTLDYWGQGTLVTVSS
# VL: SYELTQPPSVSVSPGQTARITCSGDALPKKYAYWYQQKSGQAPVLVIYEDSKRPSGIPERFSGSSSGTMATLTISGAQVEDEADYYCYSTDSSGNHWVFGGGTKLTVL
# B14: anti-CD131 antibody clonotype 116 (Table 6) (antibody, V domains shown)
# VH: QVQLVQSGAEAKKPGASVKVSCMASGYTFTTYGISWVRQAPGQGLEWMGWISAYNGNTKYAQKLQGRVTMTTDTSTRTAYMELRSLRSDDTAVYYCARQIGDYWGQGTLVTVSS
# VL: B1 VL with S54I, S92A, L99V, K106Q
# B15: anti-CD131 antibody clonotype 123 (Table 6) (antibody, V domains shown)
# VH: EVQLVESGGGLVKPGGSLRLSCAASGFTFSDAWMYWDRQAPGKGLEWVGRIKSKTDGGTTDYAAPVKGRFTISRDDSKNTLYLQMNSLKTEDTAVYYCRADMDVWGKGTTVTVSS
# VL: B13 VL with T90I, W97R
# B16: anti-CD131 antibody clonotype 126 (Table 6) (antibody, V domains shown)
# VH: QVQLVQSGAEVKKPGASVKVSCKTSGYTFTSFGISWVRQAPGQGLEWMGWISAYNDNINYAQKLQDRVTMTTDTSTSTACMELRSLRSDDTAVYFCARGASFDFWGQGTLVTVSS
# VL: B4 VL with H34Y, N41H, D52E, K55D, C91S, A94T, G95R, L99C
# B17: anti-CD131 antibody clonotype 127 (Table 6) (antibody, V domains shown)
# VH: EVQLVESGGGLVQPGGSLKLSCAASGFTFSGSAMHWVRQASGKGLEWVGRIRSKANSYATAYAASVKGRFTISRDDSKNTAYLQMNSLKTEDTAVYYCTGPFDYWGQGTLVTVSS
# VL: B4 VL with H34Y, N41H, D52E, K55N, C91S, A94T, G95S, L99W
# B18: anti-CD131 antibody clonotype 128 (Table 6) (antibody, V domains shown)
# VH: EVQLVESGGGLIQPGGSLRLSCAASGFTVSSNYMSWVRQAPGKGLEWVSVIYSGGSTYYADSVKGRFTISRDNSKNTLYLQMNSLRAEDTAVYYCARSFDAFDIWGQGTMVTVSS
# VL: QSALTQPASVSGSPGQSITISCTGTSSDVGGYNYVSWYQQHPGKAPKLMIYDVSKRPSGVSNRFSGSKSGNTASLTISGLQAEDEADYYCCSYAGSSTFVVFGGGTKLTVL
# B19: anti-CD131 antibody clonotype 132 (Table 6) (antibody, V domains shown)
# VH: EVQLVESGGGLVQPGGSLRLSCAASGFTFSSYDMHWVRQATGKGLEWVSAIGTAGDTYYPGSVKGRFTISRENAKNSLYLQMNSLRAGDTAVYYCARWGTGGFDYWGQGTLVTVSS
# VL: SYELTQPPSVSVSPGQTARITCSADALPKQYAYWYQQKPGQAPVLVIYKDSERPSGIPERFSGSSSGTTVTLTISGVQAEDEADYYCQSADSSGTWVFGGGTKLTVL
# B20: anti-CD131 antibody clonotype 140 (Table 6) (antibody, V domains shown)
# VH: QVQLVESGGGVVQPGRSLRLSCAASGFPFSNSGMHWVRQAPGKGLEWVTIISYDGNSKYYADSVKGRFTISRDNSKNTLYLQMNSLRTEDTAVYYCARGELGDFDYWGRGTLVTVSS
# VL: B3 VL with V97L
# B21: anti-CD131 antibody clonotype 158 (Table 6) (antibody, V domains shown)
# VH: EVQLVESGGGVVRPGGSLRLSCAASGFTFDDYGMSWVRQAPGKGLEWVSGINWNGGSTGYADSVKGRFTISRDNAKNSLYLQMNSLRAEDTALYYCAREGGGWVFDYWGQGTLVTVSS
# VL: B3 VL with V97W
# B22: anti-CD131 antibody clonotype 160 (Table 6) (antibody, V domains shown)
# VH: QVQLVQSGAEVKKPGASVQVSCKASGYTFTGYYIHWVRQAPGQGLEWMGWINPNSGGTNYAQKFQGRVIMTRDTSISIAYIELSRLRSDDTAVYYCARPYNWNSFDYWGQGTLVTVSS
# VL: QSALTQPASVSGSLGQSITISCTGTSSDVGGYNYVSWYQHHPGKAPKIMIYDVSNRPSGVSNRFSASKSGNTASLTISGLQTEDEADYYCSSYTTSSTWVFGGGTNLTVL
# Target: hCD131-Fc (IME021, in house) (human) (UniProt P32927)
# Test: B-cell sorting with labelled hEPOR-Fc and hCD131-Fc, double-positive population
row,Binder,binding
1,B1,binds
2,B2,binds
3,B3,binds
4,B4,binds

# Target: hCD131-Fc (IME021, in house) (human) (UniProt P32927)
# Test: flow sorting of B cells of immunised ATX-GL mice stained with fluorescent hCD131-Fc, then single-cell sequencing
row,Binder,binding
1,B5,binds
2,B6,binds
3,B7,binds
4,B8,binds
5,B9,binds
6,B10,binds
7,B11,binds
8,B12,binds
9,B13,binds
10,B14,binds
11,B15,binds
12,B16,binds
13,B17,binds
14,B18,binds
15,B19,binds
16,B20,binds
17,B21,binds
18,B22,binds
